These are yes or no findings as the source states them, for the method shown. Binding seen in cells or lysates may run through a third protein. Some results given as binding are weak or reduced against the parent protein; the word gives no strength.

The chains behind the UniProt entries cited, without tags or fusion partners. Where a name states a change or a piece, a line headed by the entry shows the natural chain unless it says otherwise. A line that says so, or that is headed by a name, gives the form on record, which may keep a tag or linker.
UniProt Q96DX5: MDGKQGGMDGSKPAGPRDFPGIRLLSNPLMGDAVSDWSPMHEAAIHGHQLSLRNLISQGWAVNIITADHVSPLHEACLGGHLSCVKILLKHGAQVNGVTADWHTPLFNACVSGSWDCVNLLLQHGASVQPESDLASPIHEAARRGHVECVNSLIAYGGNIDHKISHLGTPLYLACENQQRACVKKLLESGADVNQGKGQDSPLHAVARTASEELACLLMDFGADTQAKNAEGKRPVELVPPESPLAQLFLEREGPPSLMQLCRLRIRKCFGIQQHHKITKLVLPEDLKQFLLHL
Myc-tagged ASB9ΔSOCS (natural splicing variant of ASB9 that lacks the SOCS box) (Q96DX5, form named): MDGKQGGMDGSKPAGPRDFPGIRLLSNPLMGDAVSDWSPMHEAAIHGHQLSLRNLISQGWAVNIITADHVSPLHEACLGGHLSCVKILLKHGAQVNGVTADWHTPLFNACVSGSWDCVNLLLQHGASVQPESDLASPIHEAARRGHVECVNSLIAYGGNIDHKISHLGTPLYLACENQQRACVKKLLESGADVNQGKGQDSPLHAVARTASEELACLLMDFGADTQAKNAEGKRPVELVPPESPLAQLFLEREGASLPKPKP

The target in assay [1] is Myc-tagged human ankyrin repeat and SOCS box protein 9 (ASB9) (human) (UniProt Q96DX5). Briefly: co-IP; Myc-tagged ASB9, ASB9ΔSOCS or ANK deletion mutants transiently cotransfected with HA-tagged uMtCK or uMtCKΔBS into HEK293 cells; anti-Myc immunoprecipitates, immunoblot with anti-Myc or anti-HA. (In general: A western blot detects proteins with antibodies after separation by electrophoresis.)

The target in assay [2] is Myc-tagged ASB9ΔSOCS (natural splicing variant of ASB9 that lacks the SOCS box) (human) (UniProt Q96DX5). Described as above.
Assay [3] addresses Myc-tagged human ankyrin repeat and SOCS box protein 9 (ASB9) (human) (UniProt Q96DX5). Briefly: co-IP; anti-Myc immunoprecipitates from lysates of HEK293 cells stably expressing empty vector, Myc-tagged ASB9 or ASB9ΔSOCS; immunoblot for endogenous CKB, uMtCK and elongin B; IP buffer 10 mM HEPES pH 7.4, 150 mM NaCl, 5 mM EDTA, 1.0% NP-40, 4°C.
Assay [4] has as its target Myc-tagged ASB9ΔSOCS (natural splicing variant of ASB9 that lacks the SOCS box) (human) (UniProt Q96DX5). Described as above.
Assay [5] addresses endogenous ASB9 (human (endogenous in HEK293 and Huh-7)) (UniProt Q96DX5). Description: co-IP; endogenous proteins: anti-ASB9 immunoprecipitates from lysates of HEK293 and Huh-7 cells; immunoblot with anti-ASB9, anti-CKB, anti-uMtCK and anti-elongin B.

For “haemagglutinin (HA)-tagged uMtCK (from UniProt P12532 40-417) (enzyme)”, the binding result in assay [1] and in assay [2] was “binds” throughout.
On to “ubiquitous mitochondrial creatine kinase (uMtCK), endogenous (from UniProt P12532 40-417) (enzyme)”, for which the binding entry in assay [3], in assay [4] and in assay [5] was “binds” throughout.

Values taken from article PMC2852384.
